Measurements from PMC9015699.

Amino acid sequences for entries named in this document (tags omitted).
UniProt Q9CQY1: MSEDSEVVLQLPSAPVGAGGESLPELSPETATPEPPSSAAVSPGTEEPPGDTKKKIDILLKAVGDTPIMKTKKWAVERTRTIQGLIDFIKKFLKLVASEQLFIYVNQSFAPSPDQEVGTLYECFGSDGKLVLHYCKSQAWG
UniProt P60521: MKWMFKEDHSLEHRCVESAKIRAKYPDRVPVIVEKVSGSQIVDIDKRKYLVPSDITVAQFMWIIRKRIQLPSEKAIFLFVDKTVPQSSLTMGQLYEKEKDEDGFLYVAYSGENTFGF
UniProt P17427: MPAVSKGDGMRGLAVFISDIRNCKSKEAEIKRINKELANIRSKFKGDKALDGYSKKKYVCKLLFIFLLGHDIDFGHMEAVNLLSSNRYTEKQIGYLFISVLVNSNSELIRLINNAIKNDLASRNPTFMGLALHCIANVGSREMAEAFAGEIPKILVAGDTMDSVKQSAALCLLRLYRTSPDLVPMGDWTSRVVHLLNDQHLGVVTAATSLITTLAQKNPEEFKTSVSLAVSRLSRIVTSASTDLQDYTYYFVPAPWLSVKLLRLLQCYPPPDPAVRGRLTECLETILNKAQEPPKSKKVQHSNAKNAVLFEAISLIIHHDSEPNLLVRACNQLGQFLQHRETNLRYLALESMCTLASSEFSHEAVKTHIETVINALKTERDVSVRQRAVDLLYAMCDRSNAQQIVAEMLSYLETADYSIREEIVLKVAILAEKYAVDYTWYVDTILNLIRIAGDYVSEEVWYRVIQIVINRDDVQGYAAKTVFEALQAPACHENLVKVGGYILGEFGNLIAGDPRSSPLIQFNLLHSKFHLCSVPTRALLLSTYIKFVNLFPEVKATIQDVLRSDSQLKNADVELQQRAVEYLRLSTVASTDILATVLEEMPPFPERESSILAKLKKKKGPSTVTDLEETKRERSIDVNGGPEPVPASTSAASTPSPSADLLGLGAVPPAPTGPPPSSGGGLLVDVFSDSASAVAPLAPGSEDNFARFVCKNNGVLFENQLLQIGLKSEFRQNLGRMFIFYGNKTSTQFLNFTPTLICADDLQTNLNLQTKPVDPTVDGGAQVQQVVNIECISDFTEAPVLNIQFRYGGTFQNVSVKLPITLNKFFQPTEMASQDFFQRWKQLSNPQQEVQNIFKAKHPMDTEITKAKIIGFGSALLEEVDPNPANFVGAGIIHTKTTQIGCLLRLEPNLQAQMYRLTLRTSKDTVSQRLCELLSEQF
UniProt Q6P4T0: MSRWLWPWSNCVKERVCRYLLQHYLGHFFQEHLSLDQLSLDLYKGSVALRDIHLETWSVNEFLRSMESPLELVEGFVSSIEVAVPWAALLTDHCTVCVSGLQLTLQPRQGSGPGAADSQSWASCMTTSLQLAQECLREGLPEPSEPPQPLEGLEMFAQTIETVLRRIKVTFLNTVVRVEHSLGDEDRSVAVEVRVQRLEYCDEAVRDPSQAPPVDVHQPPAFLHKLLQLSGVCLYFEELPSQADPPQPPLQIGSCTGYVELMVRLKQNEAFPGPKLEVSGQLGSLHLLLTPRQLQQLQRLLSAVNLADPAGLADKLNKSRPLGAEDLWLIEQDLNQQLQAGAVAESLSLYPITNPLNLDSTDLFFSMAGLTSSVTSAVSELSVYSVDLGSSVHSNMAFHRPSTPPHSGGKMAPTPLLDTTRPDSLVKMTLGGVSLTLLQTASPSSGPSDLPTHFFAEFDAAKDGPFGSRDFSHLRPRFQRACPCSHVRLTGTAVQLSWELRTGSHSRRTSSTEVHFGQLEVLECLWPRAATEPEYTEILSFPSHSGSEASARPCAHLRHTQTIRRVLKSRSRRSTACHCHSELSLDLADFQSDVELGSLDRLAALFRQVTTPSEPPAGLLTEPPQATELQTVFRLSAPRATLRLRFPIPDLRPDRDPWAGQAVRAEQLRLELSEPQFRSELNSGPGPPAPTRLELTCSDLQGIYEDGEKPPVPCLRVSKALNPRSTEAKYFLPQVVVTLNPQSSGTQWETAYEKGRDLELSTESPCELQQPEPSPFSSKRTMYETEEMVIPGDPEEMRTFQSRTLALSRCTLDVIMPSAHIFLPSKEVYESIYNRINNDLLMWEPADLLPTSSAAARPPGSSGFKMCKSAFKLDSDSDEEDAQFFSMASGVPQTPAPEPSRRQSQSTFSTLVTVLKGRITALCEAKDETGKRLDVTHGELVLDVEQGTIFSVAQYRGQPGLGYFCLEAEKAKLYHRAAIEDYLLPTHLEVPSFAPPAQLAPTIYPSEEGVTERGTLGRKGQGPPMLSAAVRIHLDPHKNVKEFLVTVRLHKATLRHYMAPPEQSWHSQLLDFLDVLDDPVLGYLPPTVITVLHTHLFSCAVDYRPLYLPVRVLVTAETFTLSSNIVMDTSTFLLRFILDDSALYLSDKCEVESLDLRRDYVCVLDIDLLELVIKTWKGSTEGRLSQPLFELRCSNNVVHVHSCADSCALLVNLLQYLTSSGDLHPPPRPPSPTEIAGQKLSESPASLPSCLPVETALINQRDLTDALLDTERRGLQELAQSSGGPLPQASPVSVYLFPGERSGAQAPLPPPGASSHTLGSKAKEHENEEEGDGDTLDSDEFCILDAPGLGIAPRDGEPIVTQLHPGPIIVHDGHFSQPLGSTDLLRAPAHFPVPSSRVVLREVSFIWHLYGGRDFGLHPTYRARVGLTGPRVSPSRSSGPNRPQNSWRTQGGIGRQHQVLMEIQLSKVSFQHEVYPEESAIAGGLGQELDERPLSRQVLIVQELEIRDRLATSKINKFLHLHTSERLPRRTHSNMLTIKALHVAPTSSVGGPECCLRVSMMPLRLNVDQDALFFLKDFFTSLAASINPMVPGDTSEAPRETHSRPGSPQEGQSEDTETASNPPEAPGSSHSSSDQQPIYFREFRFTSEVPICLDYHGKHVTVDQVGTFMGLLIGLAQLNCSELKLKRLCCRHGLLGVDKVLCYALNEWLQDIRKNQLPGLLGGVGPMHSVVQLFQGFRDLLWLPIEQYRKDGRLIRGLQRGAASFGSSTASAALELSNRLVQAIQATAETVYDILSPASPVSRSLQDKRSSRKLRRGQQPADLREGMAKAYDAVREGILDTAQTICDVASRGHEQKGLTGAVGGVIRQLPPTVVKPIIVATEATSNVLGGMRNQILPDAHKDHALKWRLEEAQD
UniProt Q6TXD4: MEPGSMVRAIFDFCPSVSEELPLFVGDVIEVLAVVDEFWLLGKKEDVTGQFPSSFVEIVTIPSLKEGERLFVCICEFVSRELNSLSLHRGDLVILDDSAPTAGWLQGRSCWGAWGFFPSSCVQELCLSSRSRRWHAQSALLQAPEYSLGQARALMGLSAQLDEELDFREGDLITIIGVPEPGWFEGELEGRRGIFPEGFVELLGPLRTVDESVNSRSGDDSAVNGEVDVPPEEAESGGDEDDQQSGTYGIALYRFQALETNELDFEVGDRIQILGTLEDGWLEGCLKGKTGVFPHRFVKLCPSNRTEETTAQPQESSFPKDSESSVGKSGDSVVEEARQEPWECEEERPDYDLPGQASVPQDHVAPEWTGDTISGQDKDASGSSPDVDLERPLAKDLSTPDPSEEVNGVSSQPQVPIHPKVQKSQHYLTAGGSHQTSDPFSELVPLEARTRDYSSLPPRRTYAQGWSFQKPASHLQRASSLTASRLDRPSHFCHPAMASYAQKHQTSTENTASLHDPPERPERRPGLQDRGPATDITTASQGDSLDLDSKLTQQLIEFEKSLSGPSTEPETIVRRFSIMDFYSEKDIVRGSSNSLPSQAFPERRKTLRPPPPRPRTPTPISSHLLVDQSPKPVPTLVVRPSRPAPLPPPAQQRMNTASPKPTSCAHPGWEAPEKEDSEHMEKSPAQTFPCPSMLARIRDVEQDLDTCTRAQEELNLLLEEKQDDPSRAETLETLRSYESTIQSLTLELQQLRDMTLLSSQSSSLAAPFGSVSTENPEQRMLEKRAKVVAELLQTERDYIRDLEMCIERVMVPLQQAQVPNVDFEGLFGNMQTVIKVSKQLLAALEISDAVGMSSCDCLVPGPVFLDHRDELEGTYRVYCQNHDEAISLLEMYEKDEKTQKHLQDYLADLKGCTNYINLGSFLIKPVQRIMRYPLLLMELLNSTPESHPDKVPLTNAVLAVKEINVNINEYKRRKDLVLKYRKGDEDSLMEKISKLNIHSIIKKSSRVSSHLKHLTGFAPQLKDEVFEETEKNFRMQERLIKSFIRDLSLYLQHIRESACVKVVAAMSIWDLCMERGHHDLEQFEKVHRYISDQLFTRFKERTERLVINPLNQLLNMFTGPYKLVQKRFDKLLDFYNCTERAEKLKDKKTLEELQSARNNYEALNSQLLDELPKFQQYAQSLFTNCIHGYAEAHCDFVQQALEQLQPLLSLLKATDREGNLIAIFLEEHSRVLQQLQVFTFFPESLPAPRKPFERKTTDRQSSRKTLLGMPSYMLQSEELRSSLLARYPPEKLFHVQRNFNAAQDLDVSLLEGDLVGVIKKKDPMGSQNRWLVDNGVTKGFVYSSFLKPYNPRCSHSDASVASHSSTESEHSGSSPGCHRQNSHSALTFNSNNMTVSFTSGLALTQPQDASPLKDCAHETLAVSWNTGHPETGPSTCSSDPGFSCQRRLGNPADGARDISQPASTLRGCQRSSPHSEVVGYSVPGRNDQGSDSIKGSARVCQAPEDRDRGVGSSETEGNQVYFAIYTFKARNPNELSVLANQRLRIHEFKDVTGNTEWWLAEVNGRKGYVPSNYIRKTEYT
UniProt Q9ESK9: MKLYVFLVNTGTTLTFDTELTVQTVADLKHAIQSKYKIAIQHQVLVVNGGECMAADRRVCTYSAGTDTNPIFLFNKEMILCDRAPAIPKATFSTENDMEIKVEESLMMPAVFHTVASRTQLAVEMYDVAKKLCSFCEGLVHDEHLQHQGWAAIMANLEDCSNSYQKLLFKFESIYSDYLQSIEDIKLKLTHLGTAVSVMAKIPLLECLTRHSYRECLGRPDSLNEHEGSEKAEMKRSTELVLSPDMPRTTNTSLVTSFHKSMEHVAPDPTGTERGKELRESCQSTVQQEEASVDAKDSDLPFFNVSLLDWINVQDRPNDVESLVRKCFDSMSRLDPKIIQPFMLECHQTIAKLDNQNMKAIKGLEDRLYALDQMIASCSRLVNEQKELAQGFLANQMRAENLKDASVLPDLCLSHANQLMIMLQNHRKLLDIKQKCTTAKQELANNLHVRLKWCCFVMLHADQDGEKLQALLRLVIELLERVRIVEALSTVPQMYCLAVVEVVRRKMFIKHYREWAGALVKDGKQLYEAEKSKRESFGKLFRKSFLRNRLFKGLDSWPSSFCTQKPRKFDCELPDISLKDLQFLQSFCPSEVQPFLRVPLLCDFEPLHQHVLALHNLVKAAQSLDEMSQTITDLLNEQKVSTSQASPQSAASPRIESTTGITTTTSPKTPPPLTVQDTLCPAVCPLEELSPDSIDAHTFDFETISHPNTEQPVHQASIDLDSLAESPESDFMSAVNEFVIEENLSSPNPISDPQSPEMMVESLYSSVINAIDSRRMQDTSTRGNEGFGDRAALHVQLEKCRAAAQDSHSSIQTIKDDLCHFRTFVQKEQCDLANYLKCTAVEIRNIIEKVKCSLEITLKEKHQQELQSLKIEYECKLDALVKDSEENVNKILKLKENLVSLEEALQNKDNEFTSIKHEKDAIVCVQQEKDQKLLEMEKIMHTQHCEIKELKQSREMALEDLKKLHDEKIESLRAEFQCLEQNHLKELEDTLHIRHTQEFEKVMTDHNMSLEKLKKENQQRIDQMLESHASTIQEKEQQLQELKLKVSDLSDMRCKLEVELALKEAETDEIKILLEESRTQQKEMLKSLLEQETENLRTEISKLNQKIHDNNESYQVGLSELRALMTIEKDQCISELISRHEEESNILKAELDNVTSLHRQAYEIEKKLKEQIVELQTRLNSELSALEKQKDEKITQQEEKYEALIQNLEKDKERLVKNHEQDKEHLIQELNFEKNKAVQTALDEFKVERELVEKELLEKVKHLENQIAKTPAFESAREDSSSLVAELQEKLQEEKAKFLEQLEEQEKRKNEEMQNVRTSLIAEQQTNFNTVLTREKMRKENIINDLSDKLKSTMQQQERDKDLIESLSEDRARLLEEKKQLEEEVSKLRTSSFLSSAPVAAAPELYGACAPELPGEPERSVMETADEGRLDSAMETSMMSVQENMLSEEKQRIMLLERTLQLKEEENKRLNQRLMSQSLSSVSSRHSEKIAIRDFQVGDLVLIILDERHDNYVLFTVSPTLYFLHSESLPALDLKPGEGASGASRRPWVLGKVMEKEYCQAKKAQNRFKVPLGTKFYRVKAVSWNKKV
UniProt Q9CPX6: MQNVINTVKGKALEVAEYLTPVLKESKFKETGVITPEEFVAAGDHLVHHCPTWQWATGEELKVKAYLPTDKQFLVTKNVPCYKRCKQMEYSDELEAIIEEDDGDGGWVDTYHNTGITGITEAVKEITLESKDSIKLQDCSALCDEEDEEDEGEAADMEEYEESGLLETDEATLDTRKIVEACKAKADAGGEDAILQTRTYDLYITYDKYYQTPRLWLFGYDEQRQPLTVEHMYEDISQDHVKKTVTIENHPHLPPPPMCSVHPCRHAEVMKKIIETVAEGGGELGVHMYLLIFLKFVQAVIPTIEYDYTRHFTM

Assays:
[1] = biological target: wild-type GFP-ATG5 (mouse) (UniProt Q99J83); assay: affinity purification with mass spectrometry; GFP-Trap immunoisolation from lysates of SILAC-labelled atg5-/- MEFs stably expressing GFP, WT GFP-ATG5 or GFP-ATG5 K130R, starved 1 h; LC-MS/MS; hits: 2 or more peptides, >2-fold enrichment over GFP
[2] = biological target: wild-type GFP-ATG5 (mouse) (UniProt Q99J83); assay: affinity purification with mass spectrometry; GFP-Trap SILAC proteomics from atg3-/- MEFs stably expressing GFP, WT GFP-ATG5 or GFP-ATG5 K130R, after nutrient starvation; hits: peptide count 2 or more, >2-fold enriched over GFP and GFP-ATG5 K130R; bait expressed alongside endogenous ATG5
GFP-ATG5 K130R (mouse) = biological target: T1, GFP-ATG5 K130R (mouse) (UniProt Q99J83); assay: affinity purification with mass spectrometry; GFP-Trap immunoisolation from lysates of SILAC-labelled atg5-/- MEFs stably expressing GFP, WT GFP-ATG5 or GFP-ATG5 K130R, starved 1 h; LC-MS/MS; hits: 2 or more peptides, >2-fold enrichment over GFP
T1 sequence: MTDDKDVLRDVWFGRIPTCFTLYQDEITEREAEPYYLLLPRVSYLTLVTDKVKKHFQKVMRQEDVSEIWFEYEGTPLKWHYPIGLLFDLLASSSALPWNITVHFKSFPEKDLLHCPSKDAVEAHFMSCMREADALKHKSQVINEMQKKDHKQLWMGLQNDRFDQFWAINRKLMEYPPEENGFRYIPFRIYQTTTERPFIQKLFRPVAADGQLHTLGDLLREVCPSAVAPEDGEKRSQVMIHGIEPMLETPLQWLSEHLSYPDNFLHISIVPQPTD

“clathrin adaptor AP1 subunit G1 (from UniProt P22892 1-822)” was tested, and the binding [1] was “binds”.

“SYNJ1 [synaptojanin 1] (from UniProt Q8CHC4 1-1574)” was tested, and the binding [1] was “binds”.

“PIK3C2A (phosphatidylinositol-4-phosphate 3-kinase catalytic subunit type 2 alpha) (from UniProt Q61194 1-1686)” was tested, and the binding [2] was “binds” and the binding [1] was “binds”.

For “clathrin adaptor AP2 subunit A1 (from UniProt P17426 1-977)”, the binding [1] was “binds”.

With “IGF2R/CI-M6PR (insulin-like growth factor 2 receptor) (from UniProt Q07113 36-2483)” the binding [1] was “binds”.

For ATG12 (from UniProt Q9CQY1 1-141), the binding [2] was “binds”.

“GABARAPL2/GATE-16 (from UniProt P60521 1-117)” was tested, and the binding [2] was “binds” and the binding [1] was “binds”.

“clathrin adaptor AP2 subunit A2 (from UniProt P17427 1-938)” was tested, and the binding [1] was “binds”.

In the case of ATG2A (from UniProt Q6P4T0 1-1914), the binding (GFP-ATG5 K130R (mouse)) is reported as “binds”.

“DNMBP [dynamin binding protein] (from UniProt Q6TXD4 1-1580)” was tested, and the binding [1] was “binds”.

“AAK1 [AP2 associated kinase 1] (from UniProt Q3UHJ0 1-959)” was tested, and the binding [1] was “binds”.

“RBCC1 (RB1-inducible coiled-coil 1) (from UniProt Q9ESK9 1-1588)” was tested, and the binding [1] was “binds”.

For ATG3 (from UniProt Q9CPX6 1-314), the binding [1] was “binds”.

B1: CLTA [clathrin, light polypeptide (Lca)] (protein, UniProt O08585 1-235)
chain: MAELDPFGAPAGAPGGPALGNGVAGAGEEDPAAAFLAQQESEIAGIENDEAFAILDGGAPGRATRRAAGGPDAVDGVMNGEYYQESNGPTDSYAAISEVDRLQSEPESIRKWREEQTERLEALDANSRKQEAEWKEKAIKELEEWYARQDEQLQKTKANNRVADEAFYKQPFADLIGYVAAEEAFVNDIDESSPGTEWERVARLCDFNPKSSKQAKDVSRMRSVLISLKQAPLVH
In the case of B1, the binding [2] is reported as “binds” and the binding [1] is reported as “binds”.

B2: HIP1 [huntingtin interacting protein 1] (protein, UniProt Q8VD75 1-1029)
chain: MDRMASSMKQVSNPLPKVLSRRGVGAGMEAAERESFERTQTVSVNKAINTQEVAVKEKHARTCILGTHHEKGAQTFWSVVNRLPLSSNAMLCWKFCHVFHKLLRDGHPNVLKDSLRYKNELSDMSRMWGHLSEGYGQLCSIYLKLLRTRMEYHTKNPRFPGNLQMSDRQLDEAGESDVNNFFQLTVEMFDYLECELNLFQTVFNSLDMSRSVSVTTAGQCRLAPLIQVILDCSHLYDYTVKLLFKLHSCLPADTLQGHRDRFMEQFTKLKDLFQRSSNLQYFKRLIQIPQLPENPPNFLRASALSEHISPVVVIPAEVSSPDSEPVLEKDDLMDMDASQQTLFDNKFDDVFGSSLSSDPFNFNNQNGVNKDEKDHLIERLYREISGLTGQLDNMKIESQRAMLQLKGRVSELEAELAEQQHLGRQAMDDCEFLRTELDELKRQREDTEKAQRSLTEIERKAQANEQRYSKLKEKYSELVQNHADLLRKNAEVTKQVSVARQAQVDLEREKKELADSFARTQEQQDVLENLKHELATSRQELQVLHSNLETSAQSEAKWLTQIAELEKEQGSLATVAAQREEELSALRDQLESTQIKLAGAQESMCQQVKDQRKTLLAGIRKAAEREIQEALSQLEEPTLISCAGSTDHLLSKVSSVSSCLEQLEKNGSQYLACPEDISELLHSITLLAHLTGDTIIQGSATSLRAPPEPADSLTEACRQYGRETLAYLSSLEEEGTMENADVTALRNCLSRVKTLGEELLPRGLDIKQEELGDLVDKEMAATSAAIEAATTRIEEILSKSRAGDTGVKLEVNERILGSCTSLMQAIKVLVVASKDLQKEIVESGRGTASPKEFYAKNSRWTEGLISASKAVGWGATIMVDAADLVVQGKGKFEELMVCSREIAASTAQLVAASKVKANKGSLNLTQLQQASRGVNQATAAVVASTISGKSQIEETDSMDFSSMTLTQIKRQEMDSQVRVLELENDLQKERQKLGELRKKHYELAGVAEGWEEGTEASPSTVQEAIPDKE
In the case of B2, the binding [1] is reported as “binds”.

B3: GAK [cyclin G associated kinase] (protein, UniProt Q99KY4 1-1305)
chain: MSLLQSALDFLAGPGSLGGAAGRDQSDFVGQTVELGELRLRVRRVLAEGGFAFVYEAQDLGSGREYALKRLLSNEEEKNRAIIQEVCFLKKLSGHPNIVQFCSAASIGKEESDTGQAEFLLLTELCKGQLVEFLKRVECKGPLSCDSILKIFYQTCRAVQHMHRQKPPIIHRDLKVENLLLSNQGTIKLCDFGSATTISHYPDYSWSAQKRAMVEEEITRNTTPMYRTPEIVDLYSNFPIGEKQDIWALGCILYLLCFRQHPFEDGAKLRIVNGKYSIPVNDTRYTVFHDLIRAMLKVNPVERLSIAEVVRQLQEIAAARNVNPKAPITELLEQNGGYGNSGPSRAQPPCGGTVNSSGVLALAEYDQPYGGFLDILRGGTERLFTNLKDTSSKVIQSVANYAKGDLDISYITSRIAVMSFPAEGVESAIKNNIEDVRMFLDAKHPGHYAVYNLSPRIYRASKFHNRVTECGWAVRRAPHLHSLYTLCRSMHAWLREDHRNVCVVHCMDGRAASAVAVCAFLCFCRLFSTAEAAVYMFSMKRCPPGIWPSHKRYIEYVCDMVAEEPITPHSKPMLVKSVVMTPVPLFSKQRNGCRPFCEVYVGEERVTTTSQEYDRMKEFKIEDGKAVIPLGVTVQGDVLIIIYHARATLGGRLQAKMASMKMFQIQFHTGFVPRNATTVKFAKYDLDACDIQEKYPDLFQVNLEVEVEPRDRPSREAPPWENTSLRGLNPKILFSNREEQQDILSKFGKPELPRQPGSTAQYDAEAGSPEAEITESDSPQSSSTDTNHFLHTLDWQEEKEPETGLDNTSPKESQSVLIADGDGSEVSDEEEASFPSEERKPGAGEDTPRLAAGTKQQDLIFDVGMLAAPQEPVQPEEGVDLLGLHSEGDLRPAAPLQACGVPSSNTDLLSCLLEPSDAAQVGPPGDLLGGEAPLLLASPVSPLGLQNNLQGKVPDTVDPFDQFLLSSNSDTQPCSKPDLFGEFLNSDSVASSTAFPSTHSAPPPSCSTAFLHLGDLPAEPSKVIASSSHPDLLGGWDTWADTATPGPASIPVPEGTLFSSAGHPAPPGPNPSQTKSQNLDPFADLSDLSSSLQGLPAGLPAGGFVGAPAPTQKSNSPWQANRPTAPGTSWTPQAKPAPRASEQLRSHFSVIGAREERGVRVPSFAQKPKVSENDFEDLLPNQGFSKSDKKGPKTMAEMRKQELARDTDPLKLKLLDWIEGKERNIRALLSTLHTVLWDGESRWTPVSMADLVTPEQVKKQYRRAVLVVHPDKATGQPYEQYAKMIFMELNDAWSEFENQGSRPLF
In the case of B3, the binding [1] is reported as “binds”.

B4: PICALM [phosphatidylinositol binding clathrin assembly protein] (protein, UniProt Q7M6Y3 1-660)
chain: MSGQSLTDRITAAQHSVTGSAVSKTVCKATTHEIMGPKKKHLDYLIQCTNEMNVNIPQLADSLFERTTNSSWVVVFKSLITTHHLMVYGNERFIQYLASRNTLFNLSNFLDKSGLQGYDMSTFIRRYSRYLNEKAVSYRQVAFDFTKVKRGADGVMRTMNTEKLLKTVPIIQNQMDALLDFNVNSNELTNGVINAAFMLLFKDAIRLFAAYNEGIINLLEKYFDMKKNQCKEGLDIYKKFLTRMTRISEFLKVAEQVGIDRGDIPDLSQAPSSLLDALEQHLASLEGKKIKDSTAASRATTLSNAVSSLASTGLSLTKVDEREKQAALEEEQARLKALKEQRLKELAKKPHTSLTTAASPVSTSAGGIMTAPAIDIFSTPSSSNSTSKLPNDLLDLQQPTFHPSVHAMSAAPQGASTWGDPFSATLDAVEDAIPSLNPFLTKSSGDVHLPIASDVSTFTTRTPTHEMFVGFSPSPVAQPHSSAGLNVDFESVFGNKSTNVAVDSGGFDELGGLLKPTVASQNQSLPVAKLPPNKLVSDDLDSSLANLVGNLGIGNGTTKNDVSWSQPGEKKLTGGSNWQPKVAPTTAWSAATMNGMHFPQYAPPVMAYPATTPTGMIGYGIPPQMGSVPVMTQPTLIYSQPVMRPPNPFGPVSGAQIQFM
B4 was tested, and the binding [1] was “binds”.

B5: ATG7 (protein, UniProt Q9D906 1-698)
chain: MGDPGLAKLQFAPFNSALDVGFWHELTQKKLNEYRLDEAPKDIKGYYYNGDSAGLPTRLTLEFSAFDMSASTPAHCCPAMGTLHNTNTLEAFKTADKKLLLEQSANEIWEAIKSGAALENPMLLNKFLLLTFADLKKYHFYYWFCCPALCLPESIPLIRGPVSLDQRLSPKQIQALEHAYDDLCRAEGVTALPYFLFKYDDDTVLVSLLKHYSDFFQGQRTKITVGVYDPCNLAQYPGWPLRNFLVLAAHRWSGSFQSVEVLCFRDRTMQGARDVTHSIIFEVKLPEMAFSPDCPKAVGWEKNQKGGMGPRMVNLSGCMDPKRLAESSVDLNLKLMCWRLVPTLDLDKVVSVKCLLLGAGTLGCNVARTLMGWGVRHVTFVDNAKISYSNPVRQPLYEFEDCLGGGKPKALAAAERLQKIFPGVNARGFNMSIPMPGHPVNFSDVTMEQARRDVEQLEQLIDNHDVIFLLMDTRESRWLPTVIAASKRKLVINAALGFDTFVVMRHGLKKPKQQGAGDLCPSHLVAPADLGSSLFANIPGYKLGCYFCNDVVAPGDSTRDRTLDQQCTVSRPGLAVIAGALAVELMVSVLQHPEGGYAIASSSDDRMNEPPTSLGLVPHQIRGFLSRFDNVLPVSLAFDKCTACSPKVLDQYEREGFTFLAKVFNSSHSFLEDLTGLTLLHQETQAAEIWDMSDEETV
For B5, the binding [2] was “binds” and the binding [1] was “binds”.

No constants are given. Whether binding was seen depends on the method and setting. Binding seen in cells or lysates may run through a third protein. A yes stands for co-enrichment or nearness to the bait. Other partners may have been found. For some of these results: Where a sequence is shown, tags or fusion partners need not be part of it.
